A short description of this series: peptide synthesis. Particulars: conjugation step.

Strings that start with PEPTIDE1 are HELM notation: dots part the residues, brackets hold end groups and non-standard residues.

The substance “PEPTIDE1{[dR].R.P.[Hyp].G.F.C.[dF].L.R}|CHEM1{[SucHexIndo]}$PEPTIDE1,CHEM1,7:R3-1:R1$$$V2.0” showed a conjugation yield of 45%.

Consider “PEPTIDE1{[dR].R.P.[Hyp].G.F.C.[dF].L.R}|CHEM1{[SuccHexCE1218]}$PEPTIDE1,CHEM1,7:R3-1:R1$$$V2.0”, for which the conjugation yield came out at 35%.

(Values after US5863899A (priority 1994, dated 1999).)
